In patent publication US20100240065A1, “Prolyl Hydroxylase Compositions and Methods of Use Thereof” (Boehringer Ingelheim International GmbH, priority 2009, published 2010):
At least one structure is not confirmed: it was looked up by name or label, or the drawing left a doubt.

Test system: recombinant rhesus HPH protein
Assay: HPH enzyme activity assay, effect of cofactors and metal ions (isoform not given)
Type: biochemical, rhesus (Macaca mulatta)
Details: isoform not stated

O=C1O[C@H]([C@@H](O)CO)C(O)=C1O [ascorbate]
effect of addition on enzyme activity: increased the activity of the enzyme
